Primary screen of a compound library

Amino acid sequences for entries named in this document (tags omitted).
UniProt I6X8D2, whole entry: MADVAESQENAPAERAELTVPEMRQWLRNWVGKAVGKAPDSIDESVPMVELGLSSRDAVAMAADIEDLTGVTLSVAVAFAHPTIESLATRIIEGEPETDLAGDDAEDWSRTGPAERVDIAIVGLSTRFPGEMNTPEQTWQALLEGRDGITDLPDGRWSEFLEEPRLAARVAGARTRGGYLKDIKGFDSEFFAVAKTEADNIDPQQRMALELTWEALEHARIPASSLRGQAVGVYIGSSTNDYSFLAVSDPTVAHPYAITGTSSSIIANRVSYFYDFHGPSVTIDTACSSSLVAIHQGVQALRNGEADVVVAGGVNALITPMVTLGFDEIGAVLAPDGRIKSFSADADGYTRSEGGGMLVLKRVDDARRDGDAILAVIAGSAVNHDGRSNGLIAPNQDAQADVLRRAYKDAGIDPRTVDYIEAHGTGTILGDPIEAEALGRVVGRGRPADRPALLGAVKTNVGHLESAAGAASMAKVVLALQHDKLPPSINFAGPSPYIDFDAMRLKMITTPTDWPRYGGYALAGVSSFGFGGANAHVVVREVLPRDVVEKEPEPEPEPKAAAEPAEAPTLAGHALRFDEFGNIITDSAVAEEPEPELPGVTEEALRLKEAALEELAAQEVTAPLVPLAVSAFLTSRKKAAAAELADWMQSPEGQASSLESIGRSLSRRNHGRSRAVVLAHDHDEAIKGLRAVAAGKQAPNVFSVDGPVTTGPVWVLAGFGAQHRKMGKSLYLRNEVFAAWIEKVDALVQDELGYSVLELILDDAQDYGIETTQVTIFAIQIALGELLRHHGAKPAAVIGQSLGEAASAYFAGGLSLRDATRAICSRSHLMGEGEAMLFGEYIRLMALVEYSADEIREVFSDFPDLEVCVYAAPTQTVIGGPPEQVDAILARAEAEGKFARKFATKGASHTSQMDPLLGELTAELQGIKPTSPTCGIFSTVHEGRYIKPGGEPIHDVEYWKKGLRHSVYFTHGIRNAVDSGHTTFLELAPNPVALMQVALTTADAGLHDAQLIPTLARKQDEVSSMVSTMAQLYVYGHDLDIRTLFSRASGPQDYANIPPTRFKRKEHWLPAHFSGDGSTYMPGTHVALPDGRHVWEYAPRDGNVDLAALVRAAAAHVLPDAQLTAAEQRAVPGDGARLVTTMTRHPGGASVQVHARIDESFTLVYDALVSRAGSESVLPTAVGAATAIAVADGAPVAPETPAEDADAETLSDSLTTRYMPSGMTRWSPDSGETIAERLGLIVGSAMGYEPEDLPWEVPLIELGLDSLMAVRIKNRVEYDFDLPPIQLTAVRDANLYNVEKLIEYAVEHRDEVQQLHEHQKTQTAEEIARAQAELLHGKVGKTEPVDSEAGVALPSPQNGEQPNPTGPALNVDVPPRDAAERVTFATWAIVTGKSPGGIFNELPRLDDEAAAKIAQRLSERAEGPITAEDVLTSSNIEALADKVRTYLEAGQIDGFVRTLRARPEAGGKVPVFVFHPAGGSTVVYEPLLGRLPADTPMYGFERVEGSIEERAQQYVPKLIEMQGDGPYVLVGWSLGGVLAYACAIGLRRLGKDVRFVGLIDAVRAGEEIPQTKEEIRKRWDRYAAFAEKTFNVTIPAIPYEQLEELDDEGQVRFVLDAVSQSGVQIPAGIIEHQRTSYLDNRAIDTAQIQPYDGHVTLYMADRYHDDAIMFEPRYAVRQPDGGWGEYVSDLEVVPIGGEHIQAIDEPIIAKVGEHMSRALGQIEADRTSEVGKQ

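Enzyme assay of the thioesterase domain of polyketide synthase 13; the read-out is not stated. Target: Polyketide synthase Pks13, Mycobacterium tuberculosis (UniProt I6X8D2). Concentration: 30 µM. Higher reads as stronger inhibition (inferred from which compounds were picked for retests). Size under these conditions: about 67,000 compounds, about 300 of them at 50% or above in at least one test.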

Each number is a percent effect as filed. The controls that fix the scale are not given in the record; negative values are as filed. This is an unselected part of the compounds tested.

compound,effect
CN(C)C(=O)CN1C[C@@H]2CC[C@H](C1)N(Cc1cccc(Cl)c1Cl)C2,-49.07%
COC(C(=O)N1CCN(c2cccc(Cl)c2)C(=O)C1)c1ccccc1 (centres undefined),-16.58%
Cn1cc(C[C@H]2[C@@H](OCC3CC3)CCN2C(=O)c2ccc[nH]2)cn1,-11.48%
O=c1[nH]c(N2CCCCC2)nc2c1CCN(Cc1cccnc1)C2,9.381%
CCn1cc(CN2CCCN(C(=O)c3ccoc3C)CC2)cn1,-1.853%
NC(=O)c1cnc(NC2CCN(C(=O)C3CC3)CC2)c(Cl)c1,-18.24%
CC1c2ncc(CNC(=O)C3CC3)n2CCN1Cc1ccsc1 (centres undefined),-22.55%
Cc1ccccc1-n1nccc1NC(=O)CCOC(C)C,1.119%
NC(=O)CN1CCCN(C(=O)c2ccc(SC(F)F)cc2)CC1,-11.54%
CC(Cn1ccnc1)NCc1cc(Br)c2c(c1)OCO2 (centres undefined),-35.93%
CCOCCn1nc(C)cc1C(=O)N(C)Cc1cccc2ncccc12,6.123%
O=C(CN1CCc2sccc2C1)Nc1nccs1,9.701%
CC(C)N1CCCn2nc(C(=O)NCc3ccccc3F)cc2C1,18.48%
Cc1csc2ncc(-c3ccnc(N4CCN(C)CC4)n3)c(=O)n12,-27.4%
CC[C@H]1CN2CC[C@H]1C[C@@H]2CNCc1ccc(OC)cc1,-36.5%
Cc1cnn(C(C)C2CC2)c1NC(=O)c1ccco1 (centres undefined),-6.947%
CN(Cc1cccs1)C(=O)Cn1cc(NC(=O)C(C)(C)C)cn1,-12.73%
CCn1c2c(ccc1=O)CC(N)CC2 (centres undefined),-44.25%
Oc1ccc(Br)c(CNc2cccc(-c3nnc[nH]3)c2)c1,-9.955%
O=C(NCCc1ccccn1)[C@@]12CCO[C@@H]1CCN(C1CCC1)C2,21.94%
CN(Cc1ccccc1OC(F)(F)F)C(=O)C1CCCN(C(N)=O)C1 (centres undefined),-45.32%
CO[C@@H]1CC[C@H]2[C@H]1OCCN2C(=O)c1ccc(C)nc1,-8.36%
O=C1[C@@H]2CCN(Cc3ccoc3)C[C@@H]2OCCN1Cc1cccnc1,-38.74%
COc1ccc(C(=O)N2C[C@@H](O)[C@H](NCCc3ncccc3C)C2)cc1,-5.134%
Cc1noc(NCc2cc(F)ccc2F)n1,-5.509%
CCN1CCC(CNC(=O)C(c2ccccc2F)N(C)C)(N(C)C)CC1 (centres undefined),-30.3%
COc1ccc(CC(=O)N2CCCC2Cn2cc(C)cn2)c(OC)c1 (centres undefined),-23.24%
O=C(CNC(=O)C1CC1)NCc1ccc(Cl)s1,-21.38%
Cc1nc(C2CCCNC2)cc(N(C)CCc2cn[nH]c2)n1 (centres undefined),-15.14%
Cc1ccc(CS(=O)(=O)N2CC[C@H]3[C@H]2CC(=O)N3C)cc1,-0.3718%
CCc1c(O)nc(SCC(=O)Nc2ccccc2)n(C(C)CC)c1=O (centres undefined),-5.317%
O=C(c1ccco1)N1CCO[C@@H]2CNC[C@@H]21,-1.544%
CO[C@H]1CN(C(C)C)C[C@@H]1NC(=O)c1cc(-c2ccccc2O)n[nH]1,-22.51%
C[C@@H]1CN(C(=O)c2cc(COc3ccc4c(c3)OCO4)[nH]n2)C[C@H](C)O1,-17.12%
COC(=O)C1=NOC(Cc2cc(OC)c3c(c2)OCO3)C1 (centres undefined),6.461%
CC(C)c1nc(C2CCCN(C(=O)CCCn3ccnc3)C2)no1 (centres undefined),-18.64%
Cc1nc(C2CCCN2C(=O)c2ccccc2)ncc1C(N)=O (centres undefined),-22.91%
CN1CCN(C(=O)c2cc3sccc3n2Cc2ccccc2)CC1,-5.362%
c1ccc(CN2CCc3nnc(COc4ccccn4)n3CC2)nc1,-24.34%
O=C(NC1CCCN(Cc2c(F)cccc2F)C1)c1cc[nH]n1 (centres undefined),-29.85%
CC(=O)Nc1ccc(-n2ccc3nc(N4CCCC4)ncc3c2=O)cc1,-38.66%
Cc1nn(C)c(N2CCOCC2)c1CNCc1ccc(N(C)C)nc1,-26.64%
CCOCCOc1ccccc1C(=O)N1CCCC(c2ncc[nH]2)C1 (centres undefined),-19.65%
CC(C)n1ccc(C(=O)NCC(O)c2c(Cl)cccc2Cl)n1 (centres undefined),9.786%
CC(C)c1nnc2n1CCN(C(=O)c1cc(Cl)c[nH]1)C2,-14.35%
COc1cc(C2SCC(=O)Nc3[nH]ncc32)c(OC)c2c1OCO2 (centres undefined),-4.86%
Cc1ccc(NC(=O)c2nc(N3CCCCC3)ncc2Cl)cc1I,-13.4%
COc1cccc(-c2c[nH]c(C3CCCN3)n2)c1 (centres undefined),18.13%
Cc1ccc(C(=O)NC(CN2CCCC2=O)c2ccccc2)cn1 (centres undefined),-7.666%
CCS(=O)(=O)NC1CCCN(c2cc(C)ccc2F)C1=O (centres undefined),-7.062%
CC(C)(NCC(=O)N1CCCC(C(N)=O)C1)c1ccc(Cl)cc1 (centres undefined),-32.12%
CCN(CCNCc1ccc(C#N)cc1)C1CC1,4.702%
COc1cccc(N2CCN(C(=O)c3noc4c3CCCC4)CC2)c1,0.3045%
CS(=O)(=O)N1CCC2(CC1)COC(COc1ccccn1)C2 (centres undefined),2.489%
COc1ncccc1CNC(=O)NCCNS(C)(=O)=O,-10.27%
Cc1ncsc1CN1C[C@@H]2COC[C@]2(C(=O)NC(C)C)C1,-2.06%
CCN(Cc1ccoc1)C(=O)c1ccncc1O,-12.49%
Cc1cccc(C)c1OCCNC(=O)CNC(=O)C1CCCC1,-23.61%
Cc1nc(C)c(COc2ccc(S(=O)(=O)N(C)C)cc2)s1,-11.95%
CC(=O)Nc1nc(C(=O)NCCOc2cccc(C)c2)cs1,-2.214%
CCc1sc(-c2nnc(CNC(C)Cn3cc(C)cn3)o2)cc1C (centres undefined),7.238%
CCOC(=O)CNc1nc(COC)nc2c1cnn2C,-4.984%
CC(C)(C)C(=O)N1C[C@H](c2ccsc2)[C@H]2CN(C3CCCC3)CC[C@H]21,-3.011%
O=C(C1CCCCC1)N1CCC2(COc3ncccc3S(=O)(=O)N2)C1 (centres undefined),-9.556%
Cc1ccc2c(c1)SCC(=O)N2CC(=O)N1CCCC1c1cc(C)no1 (centres undefined),-5.882%
CN(CC(=O)NC(C)(C)C)C(=O)c1cccn1CCc1ccccc1,-7.07%
CC(NCc1c(C(C)C)nn(C)c1N(C)C)C(=O)NC1CCCC1 (centres undefined),-11.42%
CCOC(C)C(=O)N(C)C1CCN(c2ccc(OC)cc2)CC1 (centres undefined),-16.46%
CN(C)c1nc2sc(C(=O)N3CCN(C(=O)OC(C)(C)C)CC3)cc2s1,26.06%
CC1CCCCN1C1CN(c2nc(C3CCCC3)nc3c2cnn3C)C1 (centres undefined),-40.7%
CCCn1ccnc1CN1C[C@@H](NC(C)=O)[C@H](c2ccc(C)cc2)C1,-14.45%

Some entries from above, unchanged:

compound,effect
Cc1ccccc1-n1nccc1NC(=O)CCOC(C)C,1.119%
CC(C)c1nc(C2CCCN(C(=O)CCCn3ccnc3)C2)no1 (centres undefined),-18.64%
Cc1cccc(C)c1OCCNC(=O)CNC(=O)C1CCCC1,-23.61%
CCn1cc(CN2CCCN(C(=O)c3ccoc3C)CC2)cn1,-1.853%
COc1cccc(-c2c[nH]c(C3CCCN3)n2)c1 (centres undefined),18.13%

Data taken from ChEMBL document CHEMBL3988442, “University of Dundee, Small-Polar-MMV Screening Library” (2021).